The target of assay [1] is SNX1 (2 mut)^† (F347A, W511A) (human) (UniProt Q13596). Nature of the assay: SEC-MALS; 100 μl of protein at 1 mg ml^−1 in 150 mM NaCl, 0.5 mM TCEP, 10 mM HEPES pH 7.5; Superdex 200 Increase 10/300 GL; both purified. (In general: Size exclusion chromatography separates by hydrodynamic size, large species first.)
The target in assay [2] is T1, CI-MPR_(2347–2375) peptide (bipartite sorting motif of the cation-independent mannose-6-phosphate receptor tail) (UniProt P11717).
T1 sequence (peptide): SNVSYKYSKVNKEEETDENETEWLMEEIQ
Nature of the assay: condition: 746 µM SNX1^PX titrated into 16 µM peptide; ITC; 25 °C, 300 mM NaCl, 0.5 mM TCEP, 25 mM HEPES pH 7.5; CI-MPR in the syringe (SNX1^PX in the syringe for its test with the peptide); one-site model; both purified.

Protein sequences, listed by entry. Tags and fused reporters are not part of them. Lines headed by an entry give the natural chain unless they say otherwise; changes in a name come on top.
UniProt Q13596: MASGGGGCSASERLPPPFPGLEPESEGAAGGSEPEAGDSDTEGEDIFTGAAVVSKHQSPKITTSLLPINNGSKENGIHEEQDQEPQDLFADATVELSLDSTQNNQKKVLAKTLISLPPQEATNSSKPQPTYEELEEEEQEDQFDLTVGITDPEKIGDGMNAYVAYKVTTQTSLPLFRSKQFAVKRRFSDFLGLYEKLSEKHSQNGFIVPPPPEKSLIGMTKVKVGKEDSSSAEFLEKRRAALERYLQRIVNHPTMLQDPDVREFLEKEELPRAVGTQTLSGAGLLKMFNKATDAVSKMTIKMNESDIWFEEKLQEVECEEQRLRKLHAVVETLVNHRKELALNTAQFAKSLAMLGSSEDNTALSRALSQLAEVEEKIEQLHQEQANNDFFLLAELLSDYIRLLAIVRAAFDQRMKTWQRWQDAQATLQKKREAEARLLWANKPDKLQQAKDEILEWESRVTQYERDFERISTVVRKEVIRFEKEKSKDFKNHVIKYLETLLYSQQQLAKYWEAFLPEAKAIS

Results are given in words; binding and its absence hold for the method and conditions named.

For the substance “SNX1 (2 mut)^† (F347A, W511A) (from UniProt Q13596 1-522)”, in assay [1], the binding entry was “no binding (tested: 1 mg ml^−1)”. Turning to “SNX1^PX (PX domain of SNX1) (from UniProt Q13596 143-272) (domain or fragment)”, in assay [2], the binding entry is listed as “no binding”.

The values are drawn from PMC10352136.
